Laboratory results from PMC6337645.
These are yes or no findings as the source states them, for the method shown. Binding seen in cells or lysates may run through a third protein. Some binding calls cover weakened binding; strength is not graded here.

Protein sequences, listed by entry. Tags and fused reporters are not part of them. Residues count along the entry.
UniProt Q8N163: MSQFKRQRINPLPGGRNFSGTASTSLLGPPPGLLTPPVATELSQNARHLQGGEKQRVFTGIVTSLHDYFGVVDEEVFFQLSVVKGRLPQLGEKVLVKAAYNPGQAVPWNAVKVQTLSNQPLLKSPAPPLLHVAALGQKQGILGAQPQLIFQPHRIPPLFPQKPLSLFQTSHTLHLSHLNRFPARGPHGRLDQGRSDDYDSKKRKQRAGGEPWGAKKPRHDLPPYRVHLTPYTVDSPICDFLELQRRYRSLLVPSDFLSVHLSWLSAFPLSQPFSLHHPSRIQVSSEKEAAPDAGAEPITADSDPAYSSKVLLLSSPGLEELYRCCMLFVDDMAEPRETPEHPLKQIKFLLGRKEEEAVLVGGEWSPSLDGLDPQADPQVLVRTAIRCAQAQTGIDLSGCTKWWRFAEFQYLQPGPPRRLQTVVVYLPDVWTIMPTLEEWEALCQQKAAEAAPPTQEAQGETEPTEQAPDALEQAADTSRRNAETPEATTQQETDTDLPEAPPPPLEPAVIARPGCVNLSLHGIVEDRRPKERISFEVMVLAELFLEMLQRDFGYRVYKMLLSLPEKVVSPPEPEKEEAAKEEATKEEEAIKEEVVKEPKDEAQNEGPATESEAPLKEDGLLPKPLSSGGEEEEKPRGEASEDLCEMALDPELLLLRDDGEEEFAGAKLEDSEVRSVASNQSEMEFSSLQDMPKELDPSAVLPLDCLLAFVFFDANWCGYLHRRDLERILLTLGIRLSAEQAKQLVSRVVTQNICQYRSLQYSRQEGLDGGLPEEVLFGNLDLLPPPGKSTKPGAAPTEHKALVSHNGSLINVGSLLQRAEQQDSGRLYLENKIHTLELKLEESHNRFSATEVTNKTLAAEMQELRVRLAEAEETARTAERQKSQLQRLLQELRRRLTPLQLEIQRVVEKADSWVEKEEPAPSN
UniProt P10809, residues 27-573: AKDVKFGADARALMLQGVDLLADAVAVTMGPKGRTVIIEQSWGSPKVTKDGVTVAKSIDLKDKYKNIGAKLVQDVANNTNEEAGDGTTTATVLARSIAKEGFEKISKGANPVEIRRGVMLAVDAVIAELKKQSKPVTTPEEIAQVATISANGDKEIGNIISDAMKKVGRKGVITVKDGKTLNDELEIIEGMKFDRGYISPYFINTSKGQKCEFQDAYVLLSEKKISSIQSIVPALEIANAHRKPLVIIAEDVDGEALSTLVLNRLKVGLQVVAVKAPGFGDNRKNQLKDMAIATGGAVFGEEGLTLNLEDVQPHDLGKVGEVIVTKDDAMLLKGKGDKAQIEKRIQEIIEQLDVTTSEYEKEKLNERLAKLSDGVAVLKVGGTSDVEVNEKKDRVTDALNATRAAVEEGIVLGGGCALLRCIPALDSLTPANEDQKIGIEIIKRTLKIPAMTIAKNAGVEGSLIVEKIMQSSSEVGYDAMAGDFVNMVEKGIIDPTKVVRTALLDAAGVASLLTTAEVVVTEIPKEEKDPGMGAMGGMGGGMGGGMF
UniProt O15392: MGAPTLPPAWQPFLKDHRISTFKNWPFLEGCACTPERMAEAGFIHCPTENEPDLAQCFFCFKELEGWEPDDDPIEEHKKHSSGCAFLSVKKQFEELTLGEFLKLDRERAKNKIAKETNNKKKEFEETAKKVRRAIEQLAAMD

Assays:
[1] = target: Cell cycle and apoptosis regulator 2 (CCAR2) (human (endogenous in SH-SY5Y and HEK293)) (UniProt Q8N163); test: co-IP; whole cell lysates of SH-SY5Y cells in NETN lysis buffer (100 mM NaCl, 0.5% Nonidet P-40), anti-CCAR2 or anti-survivin antibody with Protein A sepharose, western blotting; also in cells transfected with universal or Hsp60 siRNA
[2] = target: Cell cycle and apoptosis regulator 2 (CCAR2) (human (endogenous in SH-SY5Y and HEK293)) (UniProt Q8N163); test: co-IP; cytosolic fraction isolated from HEK293 cells, anti-CCAR2 or anti-survivin antibody, western blotting
[3] = target: Cell cycle and apoptosis regulator 2 (CCAR2) (human (endogenous in SH-SY5Y and HEK293)) (UniProt Q8N163); test: co-IP; mitochondrial fraction isolated from HEK293 cells, anti-CCAR2 or anti-survivin antibody, western blotting

Substance | binding [1] | binding [2] | binding [3]
Heat shock protein 60 (Hsp60) (from UniProt P10809-1 27-573) | binds | – | –
survivin (from UniProt O15392 1-142) | binds | no binding (condition: in the cytosolic fraction) | binds
